The supplement of paper PMC12823440, “Inhibitors supercharge kinase turnover through native proteolytic circuits” (Nature, 2025)
Counter-ions that a name gives are not always drawn. This is one part of the list. The calls rarely recur for the same compound in another form.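 Kinases were expressed as nanoluciferase fusions in K562 cells and luminescence was read every 4 h between 2 and 18 h as percent of control, DMSO set to 100% and a positive control to 0%. A time point counts as decreased when the signal drops significantly (2 sigma). The hit call is the authors' own, does not follow from the count of time points alone, and its rule is not shown.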

Protein sequences, listed by entry. Tags and fused reporters are not part of them. Lines headed by an entry give the natural chain unless they say otherwise; changes in a name come on top.
UniProt Q9UBF8: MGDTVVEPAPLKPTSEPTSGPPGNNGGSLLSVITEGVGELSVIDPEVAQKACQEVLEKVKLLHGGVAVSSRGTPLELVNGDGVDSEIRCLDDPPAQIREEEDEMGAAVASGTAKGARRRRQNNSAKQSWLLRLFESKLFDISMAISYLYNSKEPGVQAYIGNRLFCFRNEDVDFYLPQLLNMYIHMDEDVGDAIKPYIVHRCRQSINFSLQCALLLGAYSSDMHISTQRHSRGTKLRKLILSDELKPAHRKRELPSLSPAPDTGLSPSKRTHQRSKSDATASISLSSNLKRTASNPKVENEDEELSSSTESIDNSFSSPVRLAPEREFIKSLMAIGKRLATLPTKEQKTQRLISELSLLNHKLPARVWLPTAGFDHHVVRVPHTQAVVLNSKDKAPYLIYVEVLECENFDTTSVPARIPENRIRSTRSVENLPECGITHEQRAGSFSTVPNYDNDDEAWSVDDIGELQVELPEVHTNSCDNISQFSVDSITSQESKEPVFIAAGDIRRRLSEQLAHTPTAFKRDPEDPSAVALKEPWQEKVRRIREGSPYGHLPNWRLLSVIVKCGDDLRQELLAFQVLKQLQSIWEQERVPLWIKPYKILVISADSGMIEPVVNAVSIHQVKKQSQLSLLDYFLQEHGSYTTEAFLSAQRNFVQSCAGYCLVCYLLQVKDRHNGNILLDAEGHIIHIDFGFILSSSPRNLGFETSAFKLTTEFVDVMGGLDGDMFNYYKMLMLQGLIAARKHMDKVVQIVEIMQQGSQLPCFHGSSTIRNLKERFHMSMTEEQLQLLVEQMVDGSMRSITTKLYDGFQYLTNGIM
UniProt Q05397, whole entry, looked up: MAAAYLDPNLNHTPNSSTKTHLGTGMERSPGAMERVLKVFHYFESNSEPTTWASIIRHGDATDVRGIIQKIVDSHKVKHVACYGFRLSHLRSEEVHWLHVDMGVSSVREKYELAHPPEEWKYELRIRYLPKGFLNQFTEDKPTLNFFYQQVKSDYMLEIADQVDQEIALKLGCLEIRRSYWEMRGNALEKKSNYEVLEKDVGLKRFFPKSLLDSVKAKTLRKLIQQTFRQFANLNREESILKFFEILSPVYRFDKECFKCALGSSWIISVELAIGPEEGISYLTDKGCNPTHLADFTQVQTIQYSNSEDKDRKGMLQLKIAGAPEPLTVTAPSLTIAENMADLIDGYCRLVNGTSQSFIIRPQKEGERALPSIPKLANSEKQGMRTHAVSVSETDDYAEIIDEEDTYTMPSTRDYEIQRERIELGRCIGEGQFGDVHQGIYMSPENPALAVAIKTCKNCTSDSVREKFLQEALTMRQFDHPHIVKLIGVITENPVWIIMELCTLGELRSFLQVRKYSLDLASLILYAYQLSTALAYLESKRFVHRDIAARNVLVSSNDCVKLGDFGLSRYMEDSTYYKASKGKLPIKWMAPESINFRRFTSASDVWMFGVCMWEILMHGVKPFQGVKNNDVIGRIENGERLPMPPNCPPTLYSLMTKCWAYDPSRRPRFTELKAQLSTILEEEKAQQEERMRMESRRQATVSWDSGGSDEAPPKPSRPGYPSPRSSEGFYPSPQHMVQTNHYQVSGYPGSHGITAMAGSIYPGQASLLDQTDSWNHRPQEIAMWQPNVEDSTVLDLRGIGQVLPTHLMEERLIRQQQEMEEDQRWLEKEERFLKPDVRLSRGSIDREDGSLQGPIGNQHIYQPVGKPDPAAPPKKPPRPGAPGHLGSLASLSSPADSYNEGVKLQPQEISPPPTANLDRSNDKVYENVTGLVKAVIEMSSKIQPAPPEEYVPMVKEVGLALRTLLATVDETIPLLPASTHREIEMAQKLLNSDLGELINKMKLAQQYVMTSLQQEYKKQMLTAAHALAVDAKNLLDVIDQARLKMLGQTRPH
UniProt P07949, whole entry, looked up: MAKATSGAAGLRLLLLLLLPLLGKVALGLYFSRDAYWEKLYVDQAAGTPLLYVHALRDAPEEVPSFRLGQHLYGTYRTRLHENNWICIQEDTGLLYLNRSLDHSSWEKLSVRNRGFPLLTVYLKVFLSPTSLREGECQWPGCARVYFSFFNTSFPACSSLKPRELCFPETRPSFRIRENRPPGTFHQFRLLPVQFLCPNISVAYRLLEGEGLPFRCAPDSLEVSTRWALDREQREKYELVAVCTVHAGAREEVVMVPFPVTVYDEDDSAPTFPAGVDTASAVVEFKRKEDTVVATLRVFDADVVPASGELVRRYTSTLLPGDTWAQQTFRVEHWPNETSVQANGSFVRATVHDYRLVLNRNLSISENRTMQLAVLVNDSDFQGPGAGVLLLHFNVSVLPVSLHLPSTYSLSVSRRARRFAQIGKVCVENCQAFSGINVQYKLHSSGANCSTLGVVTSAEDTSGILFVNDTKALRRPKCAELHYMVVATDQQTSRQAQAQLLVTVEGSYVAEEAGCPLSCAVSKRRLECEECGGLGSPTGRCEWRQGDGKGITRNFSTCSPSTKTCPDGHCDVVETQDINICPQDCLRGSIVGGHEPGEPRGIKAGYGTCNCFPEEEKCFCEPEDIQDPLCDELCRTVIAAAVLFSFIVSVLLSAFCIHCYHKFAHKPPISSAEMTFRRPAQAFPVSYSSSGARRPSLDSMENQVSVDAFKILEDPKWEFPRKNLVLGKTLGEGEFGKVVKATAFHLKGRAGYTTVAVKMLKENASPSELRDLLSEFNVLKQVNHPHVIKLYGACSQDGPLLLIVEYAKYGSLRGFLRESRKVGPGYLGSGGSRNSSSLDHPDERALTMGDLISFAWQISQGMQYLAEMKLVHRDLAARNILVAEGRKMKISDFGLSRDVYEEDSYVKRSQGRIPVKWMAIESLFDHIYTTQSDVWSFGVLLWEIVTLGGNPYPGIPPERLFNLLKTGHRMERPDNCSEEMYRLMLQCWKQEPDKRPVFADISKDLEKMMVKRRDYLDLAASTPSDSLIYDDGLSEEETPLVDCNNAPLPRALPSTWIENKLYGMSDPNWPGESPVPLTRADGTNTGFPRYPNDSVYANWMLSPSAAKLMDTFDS
UniProt P07949, whole entry M918T, looked up: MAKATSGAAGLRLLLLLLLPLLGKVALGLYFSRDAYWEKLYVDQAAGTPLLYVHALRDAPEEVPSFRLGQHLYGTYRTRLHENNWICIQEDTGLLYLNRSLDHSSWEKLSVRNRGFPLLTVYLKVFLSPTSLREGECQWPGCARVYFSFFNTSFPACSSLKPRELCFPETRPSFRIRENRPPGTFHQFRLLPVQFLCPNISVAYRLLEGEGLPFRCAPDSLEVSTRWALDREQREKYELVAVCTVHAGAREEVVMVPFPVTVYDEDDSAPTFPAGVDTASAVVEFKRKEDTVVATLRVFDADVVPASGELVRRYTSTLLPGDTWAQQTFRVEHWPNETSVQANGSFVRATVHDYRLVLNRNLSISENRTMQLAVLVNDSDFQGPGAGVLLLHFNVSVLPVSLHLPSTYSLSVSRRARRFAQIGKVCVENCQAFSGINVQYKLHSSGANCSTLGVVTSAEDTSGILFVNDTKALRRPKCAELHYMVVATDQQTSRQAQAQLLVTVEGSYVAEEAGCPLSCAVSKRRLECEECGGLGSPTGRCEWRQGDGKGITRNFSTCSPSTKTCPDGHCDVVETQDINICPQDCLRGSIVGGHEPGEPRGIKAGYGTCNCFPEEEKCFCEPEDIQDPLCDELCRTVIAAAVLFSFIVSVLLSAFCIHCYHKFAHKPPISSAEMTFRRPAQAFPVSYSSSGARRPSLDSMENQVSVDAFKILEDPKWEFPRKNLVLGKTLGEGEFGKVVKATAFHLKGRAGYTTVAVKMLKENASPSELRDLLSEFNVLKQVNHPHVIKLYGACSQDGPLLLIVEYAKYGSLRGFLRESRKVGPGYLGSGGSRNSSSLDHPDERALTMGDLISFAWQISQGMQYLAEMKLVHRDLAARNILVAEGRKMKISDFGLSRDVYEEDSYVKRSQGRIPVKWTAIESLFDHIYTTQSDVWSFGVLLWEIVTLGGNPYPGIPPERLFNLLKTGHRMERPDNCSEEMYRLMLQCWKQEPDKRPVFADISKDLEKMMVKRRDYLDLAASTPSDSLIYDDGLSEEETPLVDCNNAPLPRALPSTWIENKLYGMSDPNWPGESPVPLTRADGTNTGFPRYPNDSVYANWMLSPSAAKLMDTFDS
UniProt Q01974, whole entry: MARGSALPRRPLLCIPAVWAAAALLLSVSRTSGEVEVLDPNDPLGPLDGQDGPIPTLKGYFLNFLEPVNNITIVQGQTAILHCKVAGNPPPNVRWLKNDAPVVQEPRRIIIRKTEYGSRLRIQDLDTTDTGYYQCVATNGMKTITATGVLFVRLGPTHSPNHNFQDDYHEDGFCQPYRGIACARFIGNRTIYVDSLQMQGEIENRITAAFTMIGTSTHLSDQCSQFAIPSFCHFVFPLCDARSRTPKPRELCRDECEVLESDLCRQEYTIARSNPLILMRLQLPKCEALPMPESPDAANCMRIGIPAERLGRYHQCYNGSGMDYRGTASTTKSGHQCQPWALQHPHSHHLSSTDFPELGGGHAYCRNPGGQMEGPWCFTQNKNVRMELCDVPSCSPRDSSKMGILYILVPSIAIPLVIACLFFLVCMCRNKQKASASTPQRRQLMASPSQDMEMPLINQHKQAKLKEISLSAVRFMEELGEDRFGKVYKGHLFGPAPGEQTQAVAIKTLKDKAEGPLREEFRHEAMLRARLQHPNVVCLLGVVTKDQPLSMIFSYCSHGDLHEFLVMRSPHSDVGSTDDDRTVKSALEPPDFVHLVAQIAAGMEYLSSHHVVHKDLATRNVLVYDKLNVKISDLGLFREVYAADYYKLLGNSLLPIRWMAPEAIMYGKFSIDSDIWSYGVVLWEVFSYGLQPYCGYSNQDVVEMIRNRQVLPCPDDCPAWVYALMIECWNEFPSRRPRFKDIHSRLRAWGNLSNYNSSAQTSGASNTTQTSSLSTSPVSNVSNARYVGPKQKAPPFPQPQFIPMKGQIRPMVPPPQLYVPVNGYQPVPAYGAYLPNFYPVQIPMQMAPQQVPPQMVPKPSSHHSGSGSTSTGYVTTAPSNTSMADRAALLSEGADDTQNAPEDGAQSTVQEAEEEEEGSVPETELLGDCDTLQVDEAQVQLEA
UniProt Q9Y6E0: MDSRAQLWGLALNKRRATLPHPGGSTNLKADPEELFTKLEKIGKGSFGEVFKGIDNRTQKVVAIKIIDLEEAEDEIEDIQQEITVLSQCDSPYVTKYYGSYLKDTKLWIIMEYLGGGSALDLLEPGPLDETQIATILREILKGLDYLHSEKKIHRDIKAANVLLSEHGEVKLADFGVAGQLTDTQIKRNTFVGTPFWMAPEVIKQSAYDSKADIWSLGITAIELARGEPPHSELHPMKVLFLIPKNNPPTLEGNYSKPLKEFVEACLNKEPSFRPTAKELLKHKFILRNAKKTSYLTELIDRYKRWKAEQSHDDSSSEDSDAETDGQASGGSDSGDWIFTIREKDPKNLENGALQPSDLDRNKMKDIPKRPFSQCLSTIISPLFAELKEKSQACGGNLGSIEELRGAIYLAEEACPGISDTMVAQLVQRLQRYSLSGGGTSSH
UniProt Q14289, whole entry, looked up: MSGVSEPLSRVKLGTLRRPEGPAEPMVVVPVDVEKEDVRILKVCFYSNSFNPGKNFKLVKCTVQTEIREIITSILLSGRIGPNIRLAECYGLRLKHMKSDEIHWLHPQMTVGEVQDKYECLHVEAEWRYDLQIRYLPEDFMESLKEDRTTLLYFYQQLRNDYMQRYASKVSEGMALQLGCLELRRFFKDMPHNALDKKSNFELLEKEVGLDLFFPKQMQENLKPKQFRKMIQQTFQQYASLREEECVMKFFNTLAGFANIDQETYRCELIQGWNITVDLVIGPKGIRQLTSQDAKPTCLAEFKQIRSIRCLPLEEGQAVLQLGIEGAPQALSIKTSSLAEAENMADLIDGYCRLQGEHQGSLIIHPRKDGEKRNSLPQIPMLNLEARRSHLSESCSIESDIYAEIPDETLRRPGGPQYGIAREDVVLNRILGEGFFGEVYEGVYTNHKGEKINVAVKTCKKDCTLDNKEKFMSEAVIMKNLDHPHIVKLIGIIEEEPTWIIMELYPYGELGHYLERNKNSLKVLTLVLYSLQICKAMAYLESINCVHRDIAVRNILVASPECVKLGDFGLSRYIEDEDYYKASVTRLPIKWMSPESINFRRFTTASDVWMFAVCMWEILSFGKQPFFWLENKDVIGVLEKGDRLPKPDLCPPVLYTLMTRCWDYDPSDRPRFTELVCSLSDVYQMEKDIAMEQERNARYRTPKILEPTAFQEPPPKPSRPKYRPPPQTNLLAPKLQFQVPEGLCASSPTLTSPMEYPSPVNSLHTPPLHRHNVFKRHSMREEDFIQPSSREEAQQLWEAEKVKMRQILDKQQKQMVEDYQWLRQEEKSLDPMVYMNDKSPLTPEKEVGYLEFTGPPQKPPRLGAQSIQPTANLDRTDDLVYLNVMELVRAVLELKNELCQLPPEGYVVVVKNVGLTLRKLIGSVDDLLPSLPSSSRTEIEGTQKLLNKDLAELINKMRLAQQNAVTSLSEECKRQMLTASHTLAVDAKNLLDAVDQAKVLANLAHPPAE

Columns and labels:
Assay in all cases: kinase-Nluc reporter destabilization hit call (1 = scored as downregulated) (binary); higher = compound decreases kinase abundance
Details in all cases: K562; 2-18 h
PDPK1 = PDPK1 (UniProt O15530)
PIK4CA = PIK4CA (UniProt P42356)
PIK4CB = PIK4CB (UniProt Q9UBF8)
PLK1 = PLK1 (UniProt P53350)
PRKAA1 = PRKAA1 (UniProt Q13131)
PRKCA = PRKCA (UniProt P17252)
PTK2 = PTK2 (UniProt Q05397)
RAF1 = RAF1 (UniProt P04049)
[1] = target: RAF1_S257L (clone: RAF1_mut) (UniProt P04049)
RET = RET (UniProt P07949)
[2] = target: RET_M918T (clone: RET_mut) (UniProt P07949)
RIOK1 = RIOK1 (UniProt Q9BRS2)
RIPK1 = RIPK1 (UniProt Q13546)
RIPK2 = RIPK2 (UniProt O43353)
ROR2 = ROR2 (UniProt Q01974)
RPS6KA1 = RPS6KA1 (UniProt Q15418)
SPHK1 = SPHK1 (UniProt Q9NYA1)
SRC = SRC (UniProt P12931)
STK24 = STK24 (UniProt Q9Y6E0)
PTK2B = PTK2B (UniProt Q14289)

Measured: kinase-Nluc reporter destabilization hit call

C[C@@H]1CCN(C(=O)CC#N)C[C@@H]1N(C)c1ncnc2[nH]ccc12 [Tofacitinib (citrate)] (10 µM)
inactive: PDPK1 = 0 | PIK4CA 0 | PIK4CB 0 | PLK1 = 0 | PRKAA1 = 0 | PRKCA 0 | PTK2 = 0 | RAF1 = 0 | [1] 0 | RET 0 | [2] 0 | RIOK1 = 0 | RIPK1 = 0 | RIPK2 = 0 | ROR2 = 0 | RPS6KA1 = 0 | SPHK1 = 0 | SRC 0 | STK24 = 0

N#Cc1c(C2CCNCC2)cc(-c2c(O)cccc2OCC2CC2)nc1N [ACHP (Hydrochloride)] (10 µM)
inactive: PDPK1 = 0 | PIK4CA 0 | PIK4CB 0 | PLK1 = 0 | PRKAA1 = 0 | PRKCA 0 | PTK2 = 0 | PTK2B 0 | RAF1 = 0 | [1] 0 | RET 0 | [2] 0 | RIOK1 = 0 | RIPK1 = 0 | RIPK2 = 0 | ROR2 = 0 | RPS6KA1 = 0 | SPHK1 = 0 | SRC 0 | STK24 = 0

CCN1CCN(Cc2ccc(Nc3ncc(F)c(-c4cc(F)c5nc(C)n(C(C)C)c5c4)n3)nc2)CC1 [Abemaciclib (methanesulfonate)] (10 µM)
inactive: PDPK1 = 0 | PIK4CA 0 | PIK4CB 0 | PLK1 = 0 | PRKAA1 = 0 | PRKCA 0 | PTK2 = 0 | PTK2B 0 | RAF1 = 0 | [1] 0 | RET 0 | [2] 0 | RIOK1 = 0 | RIPK1 = 0 | RIPK2 = 0 | ROR2 = 0 | RPS6KA1 = 0 | SPHK1 = 0 | SRC 0 | STK24 = 0

O=C1NC(=O)/C(=C/c2ccc3nccnc3c2)S1 (10 µM)
inactive: PDPK1 = 0 | PIK4CA 0 | PIK4CB 0 | PLK1 = 0 | PRKAA1 = 0 | PRKCA 0 | PTK2 = 0 | PTK2B 0 | RAF1 = 0 | [1] 0 | RET 0 | [2] 0 | RIOK1 = 0 | RIPK1 = 0 | RIPK2 = 0 | ROR2 = 0 | RPS6KA1 = 0 | SPHK1 = 0 | SRC 0 | STK24 = 0

C=CC(=O)Nc1cc(Nc2ncc(Cl)c(-c3c[nH]c4ccccc34)n2)c(OC)cc1N(C)CCN(C)C [Mutant EGFR inhibitor] (2.5 µM)
inactive: PDPK1 = 0 | PIK4CA 0 | PIK4CB 0 | PLK1 = 0 | PRKAA1 = 0 | PRKCA 0 | PTK2 = 0 | PTK2B 0 | RAF1 = 0 | [1] 0 | RET 0 | [2] 0 | RIOK1 = 0 | RIPK1 = 0 | RIPK2 = 0 | ROR2 = 0 | RPS6KA1 = 0 | SPHK1 = 0 | SRC 0 | STK24 = 0

CCN1CCN(Cc2ccc(-c3cc4c(N[C@H](C)c5ccccc5)ncnc4[nH]3)cc2)CC1 (2.5 µM)
inactive: PDPK1 = 0 | PIK4CA 0 | PIK4CB 0 | PLK1 = 0 | PRKAA1 = 0 | PRKCA 0 | PTK2 = 0 | PTK2B 0 | RAF1 = 0 | [1] 0 | RET 0 | [2] 0 | RIOK1 = 0 | RIPK1 = 0 | RIPK2 = 0 | ROR2 = 0 | RPS6KA1 = 0 | SPHK1 = 0 | SRC 0 | STK24 = 0

Cn1cnc2c(F)c(Nc3ccc(Br)cc3Cl)c(C(=O)NOCCO)cc21 [Selumetinib] (10 µM)
inactive: PDPK1 = 0 | PIK4CA 0 | PIK4CB 0 | PLK1 = 0 | PRKAA1 = 0 | PRKCA 0 | PTK2 = 0 | PTK2B 0 | RAF1 = 0 | [1] 0 | RET 0 | [2] 0 | RIOK1 = 0 | RIPK1 = 0 | RIPK2 = 0 | ROR2 = 0 | RPS6KA1 = 0 | SPHK1 = 0 | SRC 0 | STK24 = 0

Oc1cc2c(cc1O)C(Cc1cccc3ccccc13)NCC2 (centres undefined) (10 µM)
inactive: PDPK1 = 0 | PIK4CA 0 | PIK4CB 0 | PLK1 = 0 | PRKAA1 = 0 | PRKCA 0 | PTK2 = 0 | PTK2B 0 | RAF1 = 0 | [1] 0 | RET 0 | [2] 0 | RIOK1 = 0 | RIPK1 = 0 | RIPK2 = 0 | ROR2 = 0 | RPS6KA1 = 0 | SPHK1 = 0 | SRC 0 | STK24 = 0

C=C1C(=O)O[C@H]2C[C@H](C)C(/C=C/C(C)=O)=CC[C@H]12 [Xanthatin] (2.5 µM)
inactive: PDPK1 = 0 | PIK4CA 0 | PIK4CB 0 | PLK1 = 0 | PRKAA1 = 0 | PRKCA 0 | PTK2 = 0 | PTK2B 0 | RAF1 = 0 | [1] 0 | RET 0 | [2] 0 | RIOK1 = 0 | RIPK1 = 0 | RIPK2 = 0 | ROR2 = 0 | RPS6KA1 = 0 | SPHK1 = 0 | SRC 0 | STK24 = 0
